{
  "source": "patent EP4796565A1",
  "about": "(Yongzhou Zhonggu Biotechnology Co., Ltd., priority 2023, dated 2025)",
  "assay": "Fmoc solid-phase peptide synthesis",
  "settings": "whole synthesis",
  "note": "Some peptides are written in HELM: one residue between dots, names in brackets for other building blocks, links after the first $.",
  "data": [
    {"substance": "PEPTIDE1{G.R.K.K.R.R.Q.R.R.R.P.P.Q.[bAla].C.W.M.S.P.R.H.L.G.T.C.[am]}$PEPTIDE1,PEPTIDE1,15:R3-25:R3$$$V2.0", "values": [
      {"measurement": "final purity (method not given)", "result": "exceeding 95%"}
    ]}
  ]
}
